At least one structure is not confirmed: it was looked up by name or label, or the drawing left a doubt.
Tested on: synthetic thick filaments containing myosin and twitchin
Experiment: Inhibition of the initiation of the catch state (actin filament binding to synthetic thick filaments, dark-field and fluorescence microscopy)
Type: biochemical, M. galloprovincialis

C=CC[C@@H]1/C=C(\C)C[C@H](C)C[C@H](OC)[C@H]2O[C@@](O)(C(=O)C(=O)N3CCCC[C@H]3C(=O)O[C@H](/C(C)=C/[C@@H]3CC[C@@H](O)[C@H](OC)C3)[C@H](C)[C@@H](O)CC1=O)[C@H](C)C[C@@H]2OC [FK 506]
binding of actin filaments to the synthetic thick filaments: did not bind to the synthetic thick filaments at all
